Test results taken from PubChem BioAssay AID2685 (National Center for Advancing Translational Sciences (NCATS), 2010).
The list shows a part of the results. Further columns of the screen follow, without active or inactive calls. The list favours compounds with an active or inconclusive main result. The note in brackets gives the kind of curve behind each potency; many fits are weak.

Assay: qHTS Assay for Lipid Storage Modulators in Drosophila S3 Cells;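 for cell number change: cells counted by Cell Tracker Red CMTPX staining in the red channel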
Conditions: BODIPY lipid droplet fluorescence, 18-24 h; for cell number change: measured here: cell count max response, cells fed with added oleic acid
Outline: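 Drosophila S3 cells loaded with oleic acid (400 uM, as added) and compounds at several concentrations; lipid droplets imaged by 488-nm laser-scanning cytometry, 500–530 nm intensity and object ratio to cell channel. Percent activity normalized to 20 uM Triacsin C.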

[1] = measured here: lipid fluorescence (Fed channel) AC50, cells fed with added oleic acid
[2] = measured here: cell number channel AC50, cells fed with added oleic acid

Compound O=C(CCNC(=O)C1CCN(S(=O)(=O)c2ccc(F)cc2)CC1)NCc1ccncc1 has a cell number change of 16.5%.
With CC(=O)C1=C(O)C(=O)N(CCN(C)C)C1c1ccc(Cl)cc1 (stereo not given) the cell number change was -15.1% and the AC50 [1] was 23100 nM [falling, partial curve, poor fit].
In the case of O=C(c1cc2ccccc2cc1O)N1CCCC(C(F)(F)F)C1 (stereo not given), the cell number change is reported as 7.57%.
In the case of O=C(NCCc1cnccn1)C1CCC(=O)N(Cc2ccc(Cl)cc2)C1 (stereo not given), the cell number change is reported as 20.5% and the AC50 [1] is reported as 23100 nM [rising, single point].
In the case of CCN(C(=O)COC(=O)Cc1cccc2ccccc12)C1CCS(=O)(=O)C1 (stereo not given), the cell number change is reported as 0.94% and the AC50 [1] is reported as 291 nM [rising, partial curve, poor fit].
Work on O=C(c1ccc2c(=O)n3c(nc2c1)CCCCC3)N1CCN(C(c2ccccc2)c2ccccc2)CC1 yielded a cell number change of 24.8%.
For Cc1ccc(C(C)C)c(OCC(=O)Nc2ccc(N3CCOCC3)cc2N2CCOCC2)c1, the cell number change was 51% and the AC50 [2] was 6510 nM [rising, full curve].
With CC(=O)/C(=N/Nc1ccccc1)N1CCOCC1 the cell number change was 53.4%, the AC50 [2] was 29100 nM [rising, single point] and the AC50 [1] was 29100 nM [rising, single point].
In the case of COC(=O)C1CN(C(=O)c2cccc(OC(F)F)c2)c2ccccc2O1 (stereo not given), the cell number change is reported as -10.5%.
For C=CCc1ccc(O)c(-c2cc(CC=C)ccc2O)c1, the cell number change was -37%, the AC50 [2] was 20600 nM [falling, single point] and the AC50 [1] was 29100 nM [falling, single point].
With O=C(CN1C(=O)COc2ccc(Cl)cc21)N1CCc2ccccc21 the AC50 [2] was 6510 nM [rising, single point].
In the case of COc1cccc(C2C(C(C)=O)=C(O)C(=O)N2CCc2c[nH]c3ccccc23)c1 (stereo not given), the cell number change is reported as -24.1% and the AC50 [2] is reported as 2590 nM [falling, full curve, poor fit].
Cn1c(=O)c2c(ncn2CC(=O)NC(C)(C)C)n(C)c1=O showed a cell number change of 2.36%.
With Cn1nccc1NC(=O)Nc1ccccc1 the cell number change was -20.7%, the AC50 [2] was 116 nM [falling, full curve, poor fit] and the AC50 [1] was 18400 nM [falling, single point].
In the case of O=C(Nc1cc(S(=O)(=O)Nc2ccc(Cl)cc2)ccc1N1CCCCC1)c1ccc(F)cc1Cl, the cell number change is reported as -18.5%.
For CC(C)(C)n1nc2c(c1NC(=O)c1cc3ccccc3o1)CSC2, the cell number change was 29.2%.
For COC(=O)c1ccc(OCC(=O)NC2CCCCCC2)cc1, the cell number change was 9.69% and the AC50 [1] was 18.4 nM [falling, full curve].
For COc1cc(C(=O)NCCOc2ccccc2)c(Br)c(OC)c1OC, the cell number change was 102%, the AC50 [2] was 7310 nM [falling, partial curve, poor fit] and the AC50 [1] was 3260 nM [falling, partial curve].
In the case of COC(=O)C(C)N1C(=O)S/C(=C/c2cc(C)n(C(C)C)c2C)C1=O (stereo not given), the cell number change is reported as 55.7%, the AC50 [2] is reported as 820 nM [rising, partial curve] and the AC50 [1] is reported as 291 nM [rising, full curve].
For O=C(Nc1ccc(S(=O)(=O)Nc2ncccn2)cc1)c1cnc(Cl)c(Cl)c1, the cell number change was -38.5%, the AC50 [2] was 517 nM [falling, full curve] and the AC50 [1] was 4110 nM [falling, full curve].
With O=C(O)c1cc(C(=O)C2CCCCC2)c[nH]1 the AC50 [2] was 6510 nM [rising, single point] and the AC50 [1] was 580 nM [rising, single point].
For C=CCn1c(SCC(=O)c2ccc(Br)cc2)nnc1C(CC(C)C)NC(=O)c1cccs1 (stereo not given), the cell number change was 35%, the AC50 [2] was 29100 nM [rising, single point] and the AC50 [1] was 29100 nM [rising, single point].
With COCC(C)n1c(SCC(=O)NC(=O)Cc2ccccc2)nc2ccccc2c1=O (stereo not given) the cell number change was -15%.
With Cc1ccc(NC(=O)CCl)c(C)c1 the cell number change was 25.1%, the AC50 [2] was 2910 nM [rising, single point] and the AC50 [1] was 2910 nM [rising, single point].
With CCCC(C(=O)NC1CCCC1)N(Cc1ccc(OC)cc1)C(=O)c1snc(C(N)=O)c1N (stereo not given) the cell number change was -2.17% and the AC50 [1] was 1840 nM [falling, partial curve].
With CCOC(=O)CN(C(=O)c1ccccc1)c1ccccc1C the cell number change was 13% and the AC50 [1] was 11600 nM [rising, partial curve, poor fit].
For C=CCNC(=S)NNC(=O)c1ccccc1OCC, the cell number change was 26.8% and the AC50 [1] was 25900 nM [rising, partial curve].
Compound Nc1nonc1-n1nnc(C(=O)N/N=C/c2cc(Br)cs2)c1-c1ccccc1 has a cell number change of 25.2%.
With CCOC(=O)[C@H]1[C@H]2COc3ccc(Cl)cc3[C@@H]2N2C(=O)c3ccc(F)cc3NC(=O)[C@@]12C the cell number change was -0.726%, the AC50 [2] was 6510 nM [falling, single point] and the AC50 [1] was 164 nM [falling, partial curve, poor fit].
In the case of COc1c(Cl)cc(Cl)cc1C(=O)Nc1ccc(NC(=O)c2cccs2)cc1, the cell number change is reported as -3.07%, the AC50 [2] is reported as 731 nM [falling, single point] and the AC50 [1] is reported as 651 nM [falling, single point].
In the case of CC(C)c1ccc(NC(=O)CNC(=O)Cn2ccc3ccccc3c2=O)cc1, the cell number change is reported as -8.11% and the AC50 [1] is reported as 29100 nM [falling, single point].
In the case of Cc1cc(OCC(=O)NNC(=O)c2cccs2)ccc1Br, the cell number change is reported as -5.26% and the AC50 [2] is reported as 5.17 nM [rising, full curve, poor fit].
In the case of CN(C)S(=O)(=O)c1cc(NC(=O)CN2C(=O)NC3(CCCc4ccccc43)C2=O)ccc1Cl (stereo not given), the cell number change is reported as -38.6% and the AC50 [2] is reported as 29100 nM [falling, single point].
Compound Cc1cc(C)c(NC(=O)CN(C)S(=O)(=O)c2ccc3c(c2)n(C)c(=O)c(=O)n3C)c(C)c1 has a cell number change of 21.5%.
With Cc1ccc(C(=O)N2CCN(c3ccc(N4CCOCC4)nn3)CC2)cc1 the cell number change was 2.62% and the AC50 [2] was 130 nM [falling, full curve, poor fit].
With COc1ccccc1-c1cc(C(=O)N2CCOCC2)no1 the cell number change was 15.7% and the AC50 [1] was 580 nM [falling, single point].
For COC(=O)c1[nH]c2ccccc2c1NC(=O)c1ccccc1[N+](=O)[O-], the cell number change was -35%, the AC50 [2] was 2590 nM [falling, partial curve, poor fit] and the AC50 [1] was 5.8 nM [falling, full curve, poor fit].
In the case of CN(C(=O)c1ccc(Cl)c([N+](=O)[O-])c1)C1(C)CCS(=O)(=O)C1 (stereo not given), the cell number change is reported as -25.1% and the AC50 [1] is reported as 231 nM [falling, full curve].
Work on O=[N+]([O-])c1ccccc1S(=O)(=O)N1CCN(Cc2cc3c(cc2O)OCO3)CC1 yielded a cell number change of 14.1%.
With CCN(CC(=O)Nc1ccc(C(C)=O)cc1)CC(=O)Nc1ccccc1C(F)(F)F the cell number change was -2.89%.
With Cc1ccccc1OCCn1cc(C=O)c2ccccc21 the AC50 [1] was 6510 nM [falling, partial curve].
In the case of CC1CCCC(C)N1/N=C/c1cc(Br)c(O)c(Br)c1 (stereo not given), the cell number change is reported as -10.6%, the AC50 [2] is reported as 92 nM [falling, full curve, poor fit] and the AC50 [1] is reported as 731 nM [falling, single point].
For Cc1ccc(C(=O)O)cc1-n1c(C)cc(C=O)c1C, the cell number change was 15.7% and the AC50 [1] was 103 nM [rising, full curve, poor fit].
With COc1ccc(S(=O)(=O)N2CCCCCC2)cc1C(=O)N(C)Cc1ccc(Cl)cc1Cl the AC50 [2] was 2910 nM [rising, single point] and the AC50 [1] was 2910 nM [rising, full curve].
With COc1ccc(C(=O)NC(C)c2ccncc2)cc1S(=O)(=O)N(C)Cc1ccccc1 (stereo not given) the cell number change was 9.15% and the AC50 [1] was 92 nM [falling, full curve, poor fit].
With CC1(c2ccc3c(c2)OCCO3)NC(=O)N(CC(=O)Nc2c(F)cccc2F)C1=O (stereo not given) the cell number change was -32.7%, the AC50 [2] was 116 nM [falling, full curve, poor fit] and the AC50 [1] was 116 nM [falling, full curve, poor fit].
In the case of CCCCc1ccc(-c2ccc(C)cc2O)nc1, the cell number change is reported as 23.5%, the AC50 [2] is reported as 206 nM [rising, full curve, poor fit] and the AC50 [1] is reported as 146 nM [rising, full curve, poor fit].
With COc1cc(OC)cc(C(=O)N2CCN(Cc3ccc4c(c3)OCO4)CC2)c1 the cell number change was 12.8% and the AC50 [1] was 6510 nM [rising, single point].
With COc1ccc(C2C(C(=O)c3ccco3)=C(O)C(=O)N2Cc2cccnc2)cc1OC (stereo not given) the cell number change was -9.51% and the AC50 [2] was 2590 nM [rising, single point].
In the case of NS(=O)(=O)Cc1noc2ccccc12, the cell number change is reported as 11.8% and the AC50 [2] is reported as 3660 nM [falling, single point].
CCCc1nc(SCC(=O)Nc2nnc(CC)s2)c2c(C)c(C)sc2n1 gave a cell number change of 2.01%.
With CC(=O)c1cccc(NC(=O)/C(=C\c2cccnc2)NC(=O)c2ccco2)c1 the cell number change was 22.1% and the AC50 [1] was 18400 nM [rising, single point].
With COc1ccccc1NC(=O)NNC(=O)c1cc2ccccc2cc1O the cell number change was 36.2%.
COC(=O)c1cc(NS(=O)(=O)c2cccs2)cc(NS(=O)(=O)c2cccs2)c1 gave a cell number change of -14%.
For CN(Cc1ccccc1F)C(=O)COc1ccc(C(=O)c2ccccc2)cc1, the cell number change was 7.89% and the AC50 [1] was 3550 nM [rising, single point].
Work on C=CCn1c(SCC(=O)NC2CCS(=O)(=O)C2)nc2scc(C3CC3)c2c1=O (stereo not given) yielded a cell number change of -7.18%.
In the case of O=C1COc2ccc(S(=O)(=O)CCC(=O)NC3CCCCC3)cc2N1, the cell number change is reported as 22.4%.
With Cc1cc(C)n(-c2cc(-n3nc(C)cc3C)ncn2)n1 the cell number change was -1.01% and the AC50 [1] was 6510 nM [rising, single point].
With NNc1nc2c(-c3ccc(F)cc3)nnn2c2ccccc12 the cell number change was 1.56% and the AC50 [2] was 6510 nM [rising, single point].
In the case of CCN(CC)S(=O)(=O)c1cccc(NC(=O)COC(=O)C2=COCCO2)c1, the cell number change is reported as -8.03% and the AC50 [1] is reported as 82 nM [falling, full curve, poor fit].
